From article PMC3400614, “Cofactor Binding Protects Flavodoxin against Oxidative Stress” (PLoS ONE, 2012)
Results are given in words; binding and its absence hold for the method and conditions named.

The chains behind the UniProt entries cited, without tags or fusion partners. Where a name states a change or a piece, a line headed by the entry shows the natural chain unless it says otherwise.
UniProt P00324: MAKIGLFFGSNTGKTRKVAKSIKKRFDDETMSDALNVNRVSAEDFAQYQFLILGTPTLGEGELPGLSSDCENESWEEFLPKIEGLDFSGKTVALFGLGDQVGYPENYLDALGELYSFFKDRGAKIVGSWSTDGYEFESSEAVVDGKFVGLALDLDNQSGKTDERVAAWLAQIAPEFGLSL

Target: C69A apoflavodoxin (Azotobacter vinelandii) (UniProt P00324)
Assay: SEC; Superdex 75 HR 10/30, 0.5 mL/min, 25°C; apoprotein (38 μM wild type, 79 μM C69A) fresh and after 22-24 h with 10 mM H2O2 at 4°C; DTT removed before; both purified

With “C69A apoflavodoxin (from UniProt P00324 1-180)” the binding was “no binding (tested: 79 μM)”.
